Data taken from the supplement of paper PMC9233669.
Variants at the background level are over-represented here.

What was measured:
biotinyl-Phe-oxazolone = assay: self-aminoacylation, catalytic enhancement (BFO) (fold over background); higher = more active; k-Seq, kA / k0A0; sequences stand for … in GGGAAUGGAUCCACAUCUACGAAUUC…UUCACUGCAGACUUGACGAAGCUG
Method in brief: (§1)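 Working in 50 μL HEPES/NaCl/KCl/MgCl2/CaCl2 buffer with 5% acetonitrile at pH 6.9–7.0, mutagenized RNA pools (0.43 μM; 21-nt variable region) were reacted with 2–1250 μM of each biotinyl-aminoacyl-oxazolone for 90 minutes at room temperature. Streptavidin capture followed, with quantification by triplicate qPCR and Illumina sequencing. Catalytic enhancement is reported as median kA over the uncatalyzed rate, the low-activity peak of a bimodal Gaussian fit to the data.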

biotinyl-Leu-oxazolone = assay: self-aminoacylation, catalytic enhancement (BLO) (fold over background); higher = more active; k-Seq, kA / k0A0; sequences stand for … in GGGAAUGGAUCCACAUCUACGAAUUC…UUCACUGCAGACUUGACGAAGCUG
Method in brief: as §1

biotinyl-Met-oxazolone = assay: self-aminoacylation, catalytic enhancement (BMO) (fold over background); higher = more active; k-Seq, kA / k0A0; sequences stand for … in GGGAAUGGAUCCACAUCUACGAAUUC…UUCACUGCAGACUUGACGAAGCUG
Method in brief: as §1

biotinyl-Val-oxazolone = assay: self-aminoacylation, catalytic enhancement (BVO) (fold over background); higher = more active; k-Seq, kA / k0A0; sequences stand for … in GGGAAUGGAUCCACAUCUACGAAUUC…UUCACUGCAGACUUGACGAAGCUG
Method in brief: as §1

biotinyl-Ile-oxazolone = assay: self-aminoacylation, catalytic enhancement (BIO) (fold over background); higher = more active; k-Seq, kA / k0A0; sequences stand for … in GGGAAUGGAUCCACAUCUACGAAUUC…UUCACUGCAGACUUGACGAAGCUG
Method in brief: as §1

biotinyl-Trp-oxazolone = assay: self-aminoacylation, catalytic enhancement (BWO) (fold over background); higher = more active; k-Seq, kA / k0A0; sequences stand for … in GGGAAUGGAUCCACAUCUACGAAUUC…UUCACUGCAGACUUGACGAAGCUG
Method in brief: as §1

Sequence	self-aminoacylation (biotinyl-Phe-oxazolone)	self-aminoacylation (biotinyl-Leu-oxazolone)	self-aminoacylation (biotinyl-Met-oxazolone)	self-aminoacylation (biotinyl-Val-oxazolone)	self-aminoacylation (biotinyl-Ile-oxazolone)	self-aminoacylation (biotinyl-Trp-oxazolone)
CUACUUCUAACAAUCGGUCAG [Fam1A.1 aminoacylation ribozyme variant]	0.851	0.732	0.664	0.707	0.78	0.626
CUACUUCUAACAAUCGGUCUG [Fam1A.1 aminoacylation ribozyme variant]	0.785	0.585	0.608	0.693	0.658	0.532
CUACUUCUAACAAUCGUUCUG [Fam1A.1 aminoacylation ribozyme variant]	0.684	0.491	0.52	0.561	0.514	0.411
CUACUUCUAACAUUCGGUCUG [Fam1A.1 aminoacylation ribozyme variant]	0.835	0.949	0.89	0.828	0.89	0.668
CUACUUGAAACAACCGGUCUG [Fam1A.1 aminoacylation ribozyme variant]	0.529	0.805	1.18	1.01	1.07	1.24
CUACUUGAAACAAUCGGUCUU [Fam1A.1 aminoacylation ribozyme variant]	0.509	0.745	0.94	0.799	0.871	0.567
CUACUUGAAACAAUCGUUCUG [Fam1A.1 aminoacylation ribozyme variant]	0.5	0.645	0.614	0.561	0.635	0.379
CUACUUGAAGCAAUCGGUCUG [Fam1A.1 aminoacylation ribozyme variant]	0.771	1	1.02	0.994	0.931	0.5
CUACUUGUAACAAUCGGUCUG [Fam1A.1 aminoacylation ribozyme variant]	0.824	0.678	0.806	0.658	0.651	0.573
CUACUUUAAACAAGCGGUCUG [Fam1A.1 aminoacylation ribozyme variant]	0.844	1.06	0.921	0.955	0.961	0.618
CUACUUUAAACAAUCCGUCUG [Fam1A.1 aminoacylation ribozyme variant]	0.57	0.737	0.812	0.784	0.82	0.636
CUACUUUAAACAAUCGGGCUG [Fam1A.1 aminoacylation ribozyme variant]	0.648	1.07	1.25	1.06	1.2	0.746
CUACUUUAAACCAUCGGUCUG [Fam1A.1 aminoacylation ribozyme variant]	0.815	0.877	0.935	0.878	1.02	0.987
CUACUUUAAACUAUCGGUCUG [Fam1A.1 aminoacylation ribozyme variant]	0.744	1.02	0.959	1.04	0.996	0.945
CUAGUUCAAACAAUCGGACUG [Fam1A.1 aminoacylation ribozyme variant]	1.68	0.602	0.702	0.761	0.906	1
CUAUUACAAACAAUCGGUCUG [Fam1A.1 aminoacylation ribozyme variant]	0.923	0.735	0.769	0.767	0.747	0.785
CUAUUGCAAACAAUCGGUCUG [Fam1A.1 aminoacylation ribozyme variant]	0.887	0.874	0.922	0.862	0.842	0.775
CUAUUUCAAACAAUCGGGCUG [Fam1A.1 aminoacylation ribozyme variant]	2.05	0.844	1.08	1	1.24	1.88
CUAUUUCAAACAAUCGGUCAG [Fam1A.1 aminoacylation ribozyme variant]	1.35	0.614	0.686	0.619	0.654	0.73
CUAUUUCAAACAAUCGUUCUG [Fam1A.1 aminoacylation ribozyme variant]	0.744	0.587	0.601	0.637	0.621	0.469
CUAUUUCAGACAAUCGGUCUG [Fam1A.1 aminoacylation ribozyme variant]	0.885	0.914	0.634	0.796	0.766	0.522

Sequence	self-aminoacylation (biotinyl-Phe-oxazolone)	self-aminoacylation (biotinyl-Leu-oxazolone)	self-aminoacylation (biotinyl-Met-oxazolone)	self-aminoacylation (biotinyl-Val-oxazolone)	self-aminoacylation (biotinyl-Ile-oxazolone)	self-aminoacylation (biotinyl-Trp-oxazolone)
CUCCUUCAAACAAUAGGUCUG [Fam1A.1 aminoacylation ribozyme variant]	1.34	0.59	0.501	0.731	0.667	0.736
CUCCUUCAAACAAUCGGCCUG [Fam1A.1 aminoacylation ribozyme variant]	131	3.39	2.63	2.15	2.04	61.7
CUCCUUCAAACAUUCGGUCUG [Fam1A.1 aminoacylation ribozyme variant]	3.15	1.05	1.31	1.32	1.24	1.66
CUCCUUCAAACUAUCGGUCUG [Fam1A.1 aminoacylation ribozyme variant]	1.92	0.895	1.17	1.15	1.14	1.5
CUCGUUCAAACAAUCGGUCUG [Fam1A.1 aminoacylation ribozyme variant]	10.2	1.31	0.961	1.07	1.09	6.95
CUGCUUCAAACCAUCGGUCUG [Fam1A.1 aminoacylation ribozyme variant]	0.756	0.631	0.677	0.887	0.708	0.706
CUUACCCUAGUCAUCGAGUGA [Fam2.1 aminoacylation ribozyme variant]	5.25	5.38	4.55	3.24	2.99	6.07
CUUACCCUGGUCAUCGAGUGA [Fam2.1 aminoacylation ribozyme variant]	85.8	23.1	25.3	11	9.83	26.1
CUUACCCUGGUCAUCGCGUGA [Fam2.1 aminoacylation ribozyme variant]	148	18.9	18.7	10.9	7.79	18.5
CUUCACCUAGGCCAUCGGGUG [Fam2.2 aminoacylation ribozyme variant]	11.2	4.08	3.12	3.8	2.55	4.2
CUUCACCUAUGUCAUCGGGUG [Fam2.2 aminoacylation ribozyme variant]	17	4.68	3.64	2.83	2.35	4.46
CUUCUUCAAACAAUCAGUCUG [Fam1A.1 aminoacylation ribozyme variant]	12.3	0.814	0.676	0.772	0.732	5.05
CUUCUUCAAACAAUCGGUCUC [Fam1A.1 aminoacylation ribozyme variant]	28.6	1.08	0.773	0.874	0.814	13.6
CUUCUUCAUACAAUCGGUCUG [Fam1A.1 aminoacylation ribozyme variant]	0.743	0.616	0.622	0.706	0.658	0.502
GCACACGUCAAGCAAUCGGUC [Fam1B.1 aminoacylation ribozyme variant]	11.5	2.18	2.47	2.85	2.63	3.95
GCACACUCCAAGCAAUCGGUC [Fam1B.1 aminoacylation ribozyme variant]	2.35	1.48	1.31	1.55	1.36	2.53
GCACACUUAAAGCAAUCGGUC [Fam1B.1 aminoacylation ribozyme variant]	1.1	1.15	1.06	1.18	1.25	1.49
GUACUUAAAACAAUCGGUCUG [Fam1A.1 aminoacylation ribozyme variant]	1.16	0.926	1.07	0.982	1.05	1.25
GUACUUCUAACAAUCGGUCUG [Fam1A.1 aminoacylation ribozyme variant]	1.66	1.09	0.93	1.15	1.21	1.41
GUACUUGAAACAAUCGGUCUG [Fam1A.1 aminoacylation ribozyme variant]	1.4	1.07	1.04	1.13	1.2	1.23
GUUCACCUAGGUCCUCGGGUG [Fam2.2 aminoacylation ribozyme variant]	25.5	4.67	4.16	4.16	3.49	5.27
